“Also recorded” adds a separate entry of the source. Some entries repeat one wording, which the source may state once for all of them.
Test system: MDAP∙CB8 receptor
Assay: Screening of the fluorescence response of the MDAP∙CB8 receptor in homogeneous solution
Format: binding
Conditions: 0.1 mmol/L analyte (20 equiv.), 5 μmol/L MDAP∙CB8

| Structure (SMILES) | fluorescence response / associative binding toward MDAP∙CB8 reporter pair |
| --- | --- |
| OC12CC3CC(CC(C3)C1)C2 [1-adamantanol] | no or weak associative binding; also recorded: insignificant fluorescence response/binding |
| NC12CC3CC(CC(C3)C1)C2 [1-adamantylamine] | no or weak associative binding; also recorded: insignificant fluorescence response/binding |
| NS(=O)(=O)c1cc(C(=O)O)c(NCc2ccco2)cc1Cl [furosemide] | no or weak associative binding |
| COc1cc(NC(C)CCCN)c2ncccc2c1 (stereo not drawn) [primaquine] | no or weak associative binding |
| C=C[C@H]1C[N@@]2CC[C@H]1C[C@H]2[C@H](O)c1ccnc2ccc(OC)cc12 [quinine] | no or weak associative binding |
| CN(C)CCc1c[nH]c2ccc(C[C@H]3COC(=O)N3)cc12 [zolmitriptan] | no or weak associative binding |
